Source: publication PMC10956046

Each substance was assayed against T1, ZNF692-Flag (UniProt Q9BU19) (assay: co-IP; ZNF692-Flag precipitated with DYKDDDDK Fab-trap beads (protein A/G agarose as negative control) from lysates of HCT116 ZNF692-Flag cells stably expressing GFP, NPM1-GFP or NPM1-GFP mutants).
T1 sequence: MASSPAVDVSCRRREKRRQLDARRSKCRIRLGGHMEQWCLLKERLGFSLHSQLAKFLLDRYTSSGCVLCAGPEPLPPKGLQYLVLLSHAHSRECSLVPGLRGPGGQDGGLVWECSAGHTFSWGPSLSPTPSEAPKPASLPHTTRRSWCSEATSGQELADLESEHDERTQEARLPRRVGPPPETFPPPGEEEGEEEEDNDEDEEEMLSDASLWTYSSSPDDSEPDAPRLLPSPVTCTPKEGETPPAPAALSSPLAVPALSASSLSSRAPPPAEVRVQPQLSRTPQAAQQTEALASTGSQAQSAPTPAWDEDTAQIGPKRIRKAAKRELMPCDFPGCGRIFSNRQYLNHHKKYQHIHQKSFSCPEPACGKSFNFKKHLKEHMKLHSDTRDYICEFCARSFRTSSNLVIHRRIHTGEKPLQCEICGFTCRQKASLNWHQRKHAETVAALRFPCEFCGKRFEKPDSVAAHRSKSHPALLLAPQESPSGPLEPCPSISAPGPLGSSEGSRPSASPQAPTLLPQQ

binding	Substance
no binding	NPM1-GFP ΔNt (domain or fragment)
no binding	NPM1-GFP ΔNt-ΔCt (domain or fragment)

Substance	binding
NPM1-GFP ΔCt (domain or fragment)	binds

No constants are given. Whether binding was seen depends on the method and setting. In cells and extracts the contact can be indirect. A result given as binding can be weak or reduced; the word gives no strength. Where a sequence is shown, tags or fusion partners need not be part of it.
